Assay results: US20180334510A1 (BRANDEIS UNIVERSITY, published 2018)
These are yes or no findings as the source states them, for the method shown. Some binding calls cover weakened binding; strength is not graded here.

T1: Aurora A kinase (human, UniProt O14965 122-403, limits assumed)
T1 construct: also called AurA; deP AurA
T1 sequence: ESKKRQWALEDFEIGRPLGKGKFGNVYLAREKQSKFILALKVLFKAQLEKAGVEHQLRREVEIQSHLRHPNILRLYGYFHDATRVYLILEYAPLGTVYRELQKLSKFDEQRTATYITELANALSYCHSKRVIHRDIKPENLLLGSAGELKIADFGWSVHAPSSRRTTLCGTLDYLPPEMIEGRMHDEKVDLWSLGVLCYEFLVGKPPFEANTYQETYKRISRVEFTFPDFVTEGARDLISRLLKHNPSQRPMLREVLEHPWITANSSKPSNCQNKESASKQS

T2: Y199H
T2 construct: also called Y199H mutant Aurora A; Y199H Aurora A hotspot mutant
T2 chain: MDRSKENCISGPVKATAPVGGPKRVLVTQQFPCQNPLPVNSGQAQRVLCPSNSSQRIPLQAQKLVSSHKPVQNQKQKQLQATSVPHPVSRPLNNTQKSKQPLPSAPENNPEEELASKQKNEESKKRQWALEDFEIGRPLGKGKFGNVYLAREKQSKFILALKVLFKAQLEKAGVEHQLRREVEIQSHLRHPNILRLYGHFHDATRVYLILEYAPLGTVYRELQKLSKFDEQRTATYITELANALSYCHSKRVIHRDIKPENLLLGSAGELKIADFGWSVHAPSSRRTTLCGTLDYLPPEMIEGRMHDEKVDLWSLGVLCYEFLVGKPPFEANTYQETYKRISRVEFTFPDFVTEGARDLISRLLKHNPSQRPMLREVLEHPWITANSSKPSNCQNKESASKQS


Assays:
Aurora A kinase [1] = target: T1, Aurora A kinase; experiment: isothermal titration calorimetry
Aurora A kinase [2] = target: T1, Aurora A kinase; experiment: yeast display screening, binding of isolated clones
Aurora A kinase [3] = target: T1, Aurora A kinase; experiment: isothermal titration calorimetry, dephosphorylated Aurora A
Y199H = target: T2, Y199H; experiment: yeast display, single point with Y199H Aurora A, mean fluorescence
Aurora A kinase [4] = target: T1, Aurora A kinase; experiment: X-ray crystal structure of the complex

| binding (Aurora A kinase [1]) | binding (Aurora A kinase [2]) | binding (Aurora A kinase [3]) | binding (Y199H) | binding (Aurora A kinase [4]) | Binder |
| --- | --- | --- | --- | --- | --- |
| binds | binds | binds | binds |  | monobody Mb51 (designed binder, Monobody on a fibronectin type III (FN3) scaffold; also called AuroraA_51) SVSSVPTKLEVVAATPTSLLISWDAKPMSYEPVYYYRITYGETGGNSPVQEFTVPGYYSTATISGLKPGVDYTITVYADSMSSYYYSPISINYRT |
| binds | binds | binds |  |  | monobody Mb2 (designed binder, Monobody on a fibronectin type III (FN3) scaffold; also called AuroraA_2) SVSSVPTKLEVVAATPTSLLISWDAFGHQYEPVYYYRITYGETGGNSPVQEFTVPGYYSTATISGLKPGVDYTITVYAWYVDGSYSSPISINYRT |
| binds | binds | binds | binds | binds | monobody Mb60 (designed binder, Monobody on a fibronectin type III (FN3) scaffold; also called AuroraA_60) SVSSVPTKLEVVAATPTSLLISWDAPAVTVVHYVITYGETGGNSPVQEFTVPGSKSTATISGLKPGVDYTITVYAIDFYWGSYSPISINYRT |
| binds | binds | binds |  | binds | monobody Mb54 (designed binder, Monobody on a fibronectin type III (FN3) scaffold; also called AuroraA_54) SVSSVPTKLEVVAATPTSLLISWDAQTYQMYDYVSYYRITYGETGGNSPVQEFTVPGYYSTATISGLKPGVDYTITVYAEGYYSSYSPISINYRT |
| binds | binds | binds |  |  | monobody Mb44 (designed binder, Monobody on a fibronectin type III (FN3) scaffold; also called AuroraA_44) SVSSVPTKLEVVAATPTSLLISWDAPAVTVDFYVITYGETGGYSYPWQEFEVPGSKSTATISGLKPGVDYTITVYADYGQYFYSPISINYRT |
| binds | binds | binds | binds |  | monobody Mb56 (designed binder, Monobody on a fibronectin type III (FN3) scaffold; also called AuroraA_56) SVSSVPTKLEVVAATPTSLLISWDAMSDWYYWVDYYRITYGETGGNSPVQEFTVPGSYSTATISGLKPGVDYTITVYASDDVWGDYSPISINYRT |
